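Human melanoma cells were exposed to a pair of drugs for 72 h in 1,536-well plates and read by automated microscopy after fixing and staining. The read-out is the fraction of cleaved-PARP-positive nuclei, in % of that fraction in the DMSO control; 200 means twice the control level of this apoptosis marker. Concentrations were fixed for each drug; these are the higher of two levels. The file gives one value for each pair and line, without errors, so small differences may be noise. The marker varies much from line to line, for technical or biological reasons.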 An unselected part of the screen is shown.

Drugs:
vorinostat: O=C(CCCCCCC(=O)Nc1ccccc1)NO at 0.4 µM
SNS-032: CC(C)(C)c1cnc(CSc2cnc(NC(=O)C3CCNCC3)s2)o1 at 0.05 µM
GW9662: O=C(Nc1ccccc1)c1cc([N+](=O)[O-])ccc1Cl at 10 µM
BI-D1870: CC(C)CCN1c2nc(Nc3cc(F)c(O)c(F)c3)ncc2N(C)C(=O)C1C (centres unmarked) at 1 µM
PD173074: CCN(CC)CCCCNc1ncc2cc(-c3cc(OC)cc(OC)c3)c(NC(=O)NC(C)(C)C)nc2n1 at 0.5 µM
perifosine: CCCCCCCCCCCCCCCCCCOP(=O)([O-])OC1CC[N+](C)(C)CC1 at 2 µM
CP-690550: C[C@@H]1CCN(C(=O)CC#N)C[C@@H]1N(C)c1ncnc2[nH]ccc12 at 5 µM
lestaurtinib: C[C@]12O[C@H](C[C@]1(O)CO)n1c3ccccc3c3c4c(c5c6ccccc6n2c5c31)CNC4=O at 0.02 µM
PLX4720: CCCS(=O)(=O)Nc1ccc(F)c(C(=O)c2c[nH]c3ncc(Cl)cc23)c1F at 0.4 µM

Drugs,COLO 792
lestaurtinib + PLX4720,139
PD173074 + GW9662,95.1
perifosine + SNS-032,196
BI-D1870 + GW9662,273
perifosine + CP-690550,471
PD173074 + vorinostat,152
SNS-032 + PD173074,41.9
PD173074 + perifosine,132
PLX4720 + SNS-032,118
vorinostat + CP-690550,173
vorinostat + PLX4720,123
BI-D1870 + perifosine,126
GW9662 + PLX4720,95.0
CP-690550 + lestaurtinib,159
SNS-032 + GW9662,71.8
perifosine + lestaurtinib,128
CP-690550 + PLX4720,81.3
vorinostat + BI-D1870,43.6
SNS-032 + CP-690550,94.4
perifosine + GW9662,84.1
perifosine + vorinostat,72.1
PLX4720 + BI-D1870,9.0
vorinostat + GW9662,75.0
BI-D1870 + CP-690550,70.1
SNS-032 + lestaurtinib,167
PD173074 + CP-690550,37.7
PD173074 + lestaurtinib,215
GW9662 + lestaurtinib,79.1

3 of the entries, repeated:

{"drugs": "PLX4720 + BI-D1870", "COLO 792": 9.0}
{"drugs": "SNS-032 + PD173074", "COLO 792": 41.9}
{"drugs": "SNS-032 + lestaurtinib", "COLO 792": 167}

Data from the primary screen of doi:10.1371/journal.pone.0140310, rounded.